Data reported in the supplement of paper PMC12823440, “Inhibitors supercharge kinase turnover through native proteolytic circuits” (Nature, 2025).
Structures can show the parent of a compound that is named as a salt. Some of the results follow. Hit calls seldom repeat between salt and free forms of one compound.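 In K562 cells expressing nanoluciferase-fused kinases, luminescence was recorded at 4 h intervals between 2 and 18 h, normalized as percent of control with DMSO at 100% and a positive control at 0%. A significant (2 sigma) signal drop marks a time point as decreased. The authors' rule for a hit is not shown and takes in more than the number of time points.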

The chains behind the UniProt entries cited, without tags or fusion partners. Where a name states a change or a piece, a line headed by the entry shows the natural chain unless it says otherwise.
UniProt Q13555: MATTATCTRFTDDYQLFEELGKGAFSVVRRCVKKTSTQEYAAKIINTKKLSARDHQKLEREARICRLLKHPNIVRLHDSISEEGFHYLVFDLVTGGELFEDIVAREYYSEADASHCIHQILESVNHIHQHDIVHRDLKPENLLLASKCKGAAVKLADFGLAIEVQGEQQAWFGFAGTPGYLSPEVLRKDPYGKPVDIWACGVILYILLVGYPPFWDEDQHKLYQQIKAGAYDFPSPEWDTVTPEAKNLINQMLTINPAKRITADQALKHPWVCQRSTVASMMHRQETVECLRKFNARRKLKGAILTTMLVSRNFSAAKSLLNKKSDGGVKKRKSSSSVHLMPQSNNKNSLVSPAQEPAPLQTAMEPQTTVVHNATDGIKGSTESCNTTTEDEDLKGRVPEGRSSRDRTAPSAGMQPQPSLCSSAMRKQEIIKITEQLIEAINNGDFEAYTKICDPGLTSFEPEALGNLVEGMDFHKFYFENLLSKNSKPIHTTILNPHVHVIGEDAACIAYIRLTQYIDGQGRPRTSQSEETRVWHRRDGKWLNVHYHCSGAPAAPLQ
UniProt Q15131: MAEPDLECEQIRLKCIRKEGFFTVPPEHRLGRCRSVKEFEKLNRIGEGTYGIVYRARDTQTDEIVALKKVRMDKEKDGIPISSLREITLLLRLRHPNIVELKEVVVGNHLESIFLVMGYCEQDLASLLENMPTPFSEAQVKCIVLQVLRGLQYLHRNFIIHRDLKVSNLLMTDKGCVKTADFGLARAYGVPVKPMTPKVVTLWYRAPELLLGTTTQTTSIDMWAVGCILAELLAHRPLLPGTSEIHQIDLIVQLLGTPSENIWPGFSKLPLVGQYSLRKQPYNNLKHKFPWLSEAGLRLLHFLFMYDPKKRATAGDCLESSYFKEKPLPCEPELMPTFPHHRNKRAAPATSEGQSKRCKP

Each molecule was assayed against CAMK2G (UniProt Q13555) (assay: kinase-Nluc reporter destabilization hit call (1 = scored as downregulated) (binary); higher = compound decreases kinase abundance). Conditions: 10 µM; K562; 2-18 h.

kinase-Nluc reporter destabilization hit call, inactive:
COc1cc2nccc(Oc3ccc(NC(=O)C4(C(=O)Nc5ccc(F)cc5)CC4)cc3)c2cc1OC [Cabozantinib (S-malate)] 0
CN(C)C(=N)NC(=N)N [Metformin (hydrochloride)] 0
COc1ccnc(C[S+]([O-])c2nc3cc(-n4cccc4)ccc3[nH]2)c1C (stereo not drawn) [Ilaprazole (sodium)] 0
C#Cc1cccc(Nc2ncnc3cc4c(cc23)OCCOCCOCCO4)c1 [Icotinib (Hydrochloride)] 0
CC(C)NC[C@@H](C(=O)N1CCN(c2ncnc3c2[C@H](C)C[C@H]3O)CC1)c1ccc(Cl)cc1 [Ipatasertib] 0
CC(=O)c1c(C)c2cnc(Nc3ccc(N4CCNCC4)cn3)nc2n(C2CCCC2)c1=O [Palbociclib (monohydrochloride)] 0
C#Cc1cccc(Nc2ncnc3cc(OCCOC)c(OCCOC)cc23)c1 [Erlotinib] 0
OCCn1cc(-c2cnc3nnn(Cc4ccc5ncccc5c4)c3n2)cn1 0
CCN(CC)CC(=O)Nc1c(C)cccc1C [Lidocaine] 0
CCS(=O)(=O)N1CCN(c2ccc(Nc3ncc(C(N)=O)c(NC4CC4)n3)cc2)CC1 [Cerdulatinib] 0
C#Cc1cccc(Nc2ncnc3cc(OCCOC)c(OCCOC)cc23)c1 [Erlotinib (Hydrochloride)] 0
O=C(c1ccc(F)c(F)c1Nc1ccc(I)cc1F)N1CC(O)([C@@H]2CCCCN2)C1 [Cobimetinib] 0
CC(C)(C)n1nc(-c2cccc3ccccc23)c2c(N)ncnc21 [1-Naphthyl PP1 (hydrochloride)] 0
CC(=O)c1c(C)c2cnc(Nc3ccc(N4CCNCC4)cn3)nc2n(C2CCCC2)c1=O [Palbociclib (isethionate)] 0

Random excerpt: two entries already listed.
kinase-Nluc reporter destabilization hit call, inactive:
CCS(=O)(=O)N1CCN(c2ccc(Nc3ncc(C(N)=O)c(NC4CC4)n3)cc2)CC1 [Cerdulatinib] 0
OCCn1cc(-c2cnc3nnn(Cc4ccc5ncccc5c4)c3n2)cn1 0

What follows are molecules tested against CDK10 (UniProt Q15131) in the same assay as above. Conditions: 2 µM; K562; 2-18 h.

kinase-Nluc reporter destabilization hit call, inactive:
CCc1nc(C(N)=O)c(Nc2ccc(N3CCC(N4CCN(C)CC4)CC3)c(OC)c2)nc1NC1CCOCC1 [Gilteritinib] 0
CCc1nc(C(N)=O)c(Nc2ccc(N3CCC(N4CCN(C)CC4)CC3)c(OC)c2)nc1NC1CCOCC1 [Gilteritinib hemifumarate] 0
Cc1[nH]c(/C=C2\C(=O)Nc3ccc(F)cc32)c(C)c1C(=O)NCCN1CCCC1 [Toceranib (phosphate)] 0
Cc1[nH]c(/C=C2\C(=O)Nc3ccc(F)cc32)c(C)c1C(=O)NCCN1CCCC1 [Toceranib] 0
